Measured values: PMC11656743

The chains behind the UniProt entries cited, without tags or fusion partners.
UniProt A0QW02: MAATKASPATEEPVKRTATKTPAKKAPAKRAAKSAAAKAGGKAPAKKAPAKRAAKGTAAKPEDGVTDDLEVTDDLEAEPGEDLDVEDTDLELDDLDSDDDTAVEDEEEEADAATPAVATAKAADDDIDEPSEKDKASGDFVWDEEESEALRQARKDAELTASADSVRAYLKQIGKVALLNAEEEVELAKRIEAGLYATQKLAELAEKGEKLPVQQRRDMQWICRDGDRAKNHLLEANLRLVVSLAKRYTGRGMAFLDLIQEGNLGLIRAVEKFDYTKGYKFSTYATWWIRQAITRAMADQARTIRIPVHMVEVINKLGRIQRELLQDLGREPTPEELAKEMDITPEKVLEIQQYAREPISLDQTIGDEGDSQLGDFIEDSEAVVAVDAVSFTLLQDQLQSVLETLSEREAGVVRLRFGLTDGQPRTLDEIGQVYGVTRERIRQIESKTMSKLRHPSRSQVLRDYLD
UniProt Q3L885: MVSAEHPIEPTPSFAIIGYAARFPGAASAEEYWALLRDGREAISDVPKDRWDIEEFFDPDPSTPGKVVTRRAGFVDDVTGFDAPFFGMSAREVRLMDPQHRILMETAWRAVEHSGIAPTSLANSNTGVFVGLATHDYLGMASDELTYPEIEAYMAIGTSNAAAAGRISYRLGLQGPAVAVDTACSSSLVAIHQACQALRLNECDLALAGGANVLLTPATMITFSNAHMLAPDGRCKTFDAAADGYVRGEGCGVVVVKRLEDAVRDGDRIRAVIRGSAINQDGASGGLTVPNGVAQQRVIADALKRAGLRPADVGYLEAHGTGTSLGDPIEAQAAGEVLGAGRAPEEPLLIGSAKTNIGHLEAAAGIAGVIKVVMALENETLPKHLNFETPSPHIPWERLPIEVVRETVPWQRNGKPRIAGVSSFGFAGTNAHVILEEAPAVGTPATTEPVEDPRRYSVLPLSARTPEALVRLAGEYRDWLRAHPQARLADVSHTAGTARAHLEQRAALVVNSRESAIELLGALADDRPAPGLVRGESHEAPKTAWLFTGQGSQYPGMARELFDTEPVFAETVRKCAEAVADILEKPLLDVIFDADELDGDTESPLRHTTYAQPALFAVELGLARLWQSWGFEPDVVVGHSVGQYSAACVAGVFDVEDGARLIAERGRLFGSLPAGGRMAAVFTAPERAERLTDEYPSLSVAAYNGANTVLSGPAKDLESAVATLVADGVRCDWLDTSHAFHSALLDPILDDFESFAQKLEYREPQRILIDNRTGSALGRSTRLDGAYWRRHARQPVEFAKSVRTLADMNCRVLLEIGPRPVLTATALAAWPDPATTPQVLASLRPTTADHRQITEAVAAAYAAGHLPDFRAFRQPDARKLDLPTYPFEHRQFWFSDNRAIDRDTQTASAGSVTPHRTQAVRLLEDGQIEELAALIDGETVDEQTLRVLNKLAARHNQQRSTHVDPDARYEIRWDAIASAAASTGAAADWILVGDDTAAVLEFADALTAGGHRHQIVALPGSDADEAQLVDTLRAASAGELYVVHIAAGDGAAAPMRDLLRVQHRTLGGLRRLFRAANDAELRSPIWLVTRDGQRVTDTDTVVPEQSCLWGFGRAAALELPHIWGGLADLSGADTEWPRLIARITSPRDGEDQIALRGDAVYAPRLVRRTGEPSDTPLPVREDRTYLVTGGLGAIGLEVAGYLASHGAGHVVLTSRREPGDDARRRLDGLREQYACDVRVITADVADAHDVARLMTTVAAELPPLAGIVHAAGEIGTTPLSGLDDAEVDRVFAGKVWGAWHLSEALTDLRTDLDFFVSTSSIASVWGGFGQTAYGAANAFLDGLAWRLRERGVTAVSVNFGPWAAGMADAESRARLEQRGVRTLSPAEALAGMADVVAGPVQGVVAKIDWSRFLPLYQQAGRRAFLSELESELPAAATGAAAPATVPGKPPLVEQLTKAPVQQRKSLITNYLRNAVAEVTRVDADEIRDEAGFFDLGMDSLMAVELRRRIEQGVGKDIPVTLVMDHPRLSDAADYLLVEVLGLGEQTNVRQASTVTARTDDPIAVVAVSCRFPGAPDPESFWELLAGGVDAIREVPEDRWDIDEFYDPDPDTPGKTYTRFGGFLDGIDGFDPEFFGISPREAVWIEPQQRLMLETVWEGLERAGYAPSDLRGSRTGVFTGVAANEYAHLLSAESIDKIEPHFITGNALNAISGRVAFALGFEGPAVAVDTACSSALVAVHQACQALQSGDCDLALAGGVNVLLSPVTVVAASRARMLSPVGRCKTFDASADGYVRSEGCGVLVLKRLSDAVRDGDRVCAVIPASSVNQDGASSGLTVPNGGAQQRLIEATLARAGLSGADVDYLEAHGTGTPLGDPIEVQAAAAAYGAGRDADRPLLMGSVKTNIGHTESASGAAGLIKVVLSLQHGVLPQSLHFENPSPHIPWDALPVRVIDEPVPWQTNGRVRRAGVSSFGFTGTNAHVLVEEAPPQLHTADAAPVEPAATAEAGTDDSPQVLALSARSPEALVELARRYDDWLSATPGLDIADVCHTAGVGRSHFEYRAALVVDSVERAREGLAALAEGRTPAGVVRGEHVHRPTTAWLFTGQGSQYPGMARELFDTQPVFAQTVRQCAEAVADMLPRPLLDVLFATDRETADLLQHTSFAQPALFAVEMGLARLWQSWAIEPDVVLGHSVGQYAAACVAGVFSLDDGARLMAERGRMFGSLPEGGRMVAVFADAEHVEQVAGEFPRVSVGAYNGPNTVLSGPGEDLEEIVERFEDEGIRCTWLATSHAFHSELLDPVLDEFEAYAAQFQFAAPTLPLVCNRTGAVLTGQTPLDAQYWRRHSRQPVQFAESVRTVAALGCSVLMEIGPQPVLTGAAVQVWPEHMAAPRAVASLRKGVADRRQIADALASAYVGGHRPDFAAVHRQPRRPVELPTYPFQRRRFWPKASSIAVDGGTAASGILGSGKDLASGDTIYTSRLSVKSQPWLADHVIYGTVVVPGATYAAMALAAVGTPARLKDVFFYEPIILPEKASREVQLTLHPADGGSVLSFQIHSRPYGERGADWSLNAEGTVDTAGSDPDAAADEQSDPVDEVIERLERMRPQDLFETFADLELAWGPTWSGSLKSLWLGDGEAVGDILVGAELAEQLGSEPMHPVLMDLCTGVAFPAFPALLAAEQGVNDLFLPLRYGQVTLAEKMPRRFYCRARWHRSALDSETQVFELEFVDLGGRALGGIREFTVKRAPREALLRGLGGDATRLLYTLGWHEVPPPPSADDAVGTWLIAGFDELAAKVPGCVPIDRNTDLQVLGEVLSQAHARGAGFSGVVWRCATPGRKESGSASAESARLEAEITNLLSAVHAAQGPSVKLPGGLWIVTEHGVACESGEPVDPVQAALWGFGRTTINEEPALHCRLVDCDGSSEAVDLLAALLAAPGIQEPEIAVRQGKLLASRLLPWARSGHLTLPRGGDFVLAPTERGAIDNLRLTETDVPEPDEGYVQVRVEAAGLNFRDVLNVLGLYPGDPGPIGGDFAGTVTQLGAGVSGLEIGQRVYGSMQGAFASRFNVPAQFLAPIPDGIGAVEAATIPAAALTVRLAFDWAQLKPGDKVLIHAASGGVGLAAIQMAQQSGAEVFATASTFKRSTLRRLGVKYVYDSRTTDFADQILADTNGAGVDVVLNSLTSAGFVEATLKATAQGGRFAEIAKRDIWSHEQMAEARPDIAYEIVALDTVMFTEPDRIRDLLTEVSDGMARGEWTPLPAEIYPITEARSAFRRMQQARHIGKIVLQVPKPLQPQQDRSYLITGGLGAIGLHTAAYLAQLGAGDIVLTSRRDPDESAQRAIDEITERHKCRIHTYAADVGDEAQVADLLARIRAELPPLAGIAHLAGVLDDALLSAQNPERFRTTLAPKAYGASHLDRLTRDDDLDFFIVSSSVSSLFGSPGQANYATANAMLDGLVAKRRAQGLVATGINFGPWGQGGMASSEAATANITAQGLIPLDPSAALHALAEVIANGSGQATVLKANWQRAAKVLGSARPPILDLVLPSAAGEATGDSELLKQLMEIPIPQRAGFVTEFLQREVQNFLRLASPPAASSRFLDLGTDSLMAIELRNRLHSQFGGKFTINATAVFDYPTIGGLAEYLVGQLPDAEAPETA

Molecular target: σ^A-FLAG, FLAG-tagged at the native locus (strain LK3207) (M. smegmatis) (UniProt A0QW02)
Experiment: affinity purification with mass spectrometry; anti-FLAG M2 agarose IP from M. smegmatis lysates (exponential and stationary phase cells), elution with 3×FLAG peptide, in-solution trypsin digest, label-free LC-MS against the no FLAG strain

binding	Molecule
binds	Pks (MSMEG_0408) (from UniProt Q3L885 1-3652)
binds	F420 (MSMEG_0777) (protein, UniProt A0QQJ4 1-336) MAELKLGYKASAEQFAPRELVELAVLAESAGMDSATVSDHFQPWRHEGGHAPFSLAWMTAVGERTKNLVLGTSVLTPTFRYNPAVIAQAFATMGCLYPGRIFLGVGTGEALNEIATGYAGEWPEFKERFARLRESVRLMRELWLGDRVDFDGEYYRTKGASIYDVPEGGIPVYIAAGGPVVAKYAGRAGDGFICTSGKGEELYAEKLIPAVKEGAAAADRDADAIDRMIEIKISYDTDPELALENTRFWAPLSLTAEQKHSIDDPIEMEKAADALPIEQVAKRWIVASDPDEAVEKVGQYVKWGLNHLVFHAPGHDQRRFLELFKRDLEPRLRKLA
binds	CbiA (MSMEG_0067) (protein, UniProt A0QNJ7 1-474) MSADYDRLFHSSEPGKPVDDATITVDRDAILKATAATPRVPAGEKPPADAPSGAMPVAPTQTQSAATPSRTAEPQVPPPMPPPPATAPQWPQNSMLRAPQQQQFGPGARHEQPATLPPPAQRLAPGPAPSQLSDIDPEISGAWRAGQAVPAPAQPGPTSAASMGNHRAIDALSHVGVKTNVKMPSQRGWRHWLYVMTRINLGLSPDEIYELDLHNRIRRNARDSYQIGVFGLKGGVGKTAVTVSLGSAMAKIRGDRILAIDADPDGGNLADRAGRQSAATIADLLADQELSRYNDIRAYTSMNSSNLEVLSSEDYSGAQREFNDDDWKGATAVVSRYYNLVLADCGAGLFQKATRGVLSTISGLVIVASASIDGARQAAVTMDWLRQNGYQDLLGRSCVVINHVTPGKPNVDVEDLVQQFERHVPPGRVIVLPYDKHIAAGTEIQLDLLSDTFQRRITELAAALSDDFDRLERR

These are yes or no findings as the source states them, for the method shown. In cells and extracts the contact can be indirect. These calls come from enrichment with a bait or labelling near it, and not all partners need be listed.
